Data reported in the supplement of paper PMC11732987, “Enantioselective OTUD7B fragment discovery through chemoproteomics screening and high-throughput optimisation” (Communications Chemistry, 2025).
Some of the results follow. The data scatter; read single values as rough.

By UniProt entry, the sequences of proteins in these tests, tags left out. Where a name states a change or a piece, a line headed by the entry shows the natural chain unless it says otherwise.
UniProt Q13371: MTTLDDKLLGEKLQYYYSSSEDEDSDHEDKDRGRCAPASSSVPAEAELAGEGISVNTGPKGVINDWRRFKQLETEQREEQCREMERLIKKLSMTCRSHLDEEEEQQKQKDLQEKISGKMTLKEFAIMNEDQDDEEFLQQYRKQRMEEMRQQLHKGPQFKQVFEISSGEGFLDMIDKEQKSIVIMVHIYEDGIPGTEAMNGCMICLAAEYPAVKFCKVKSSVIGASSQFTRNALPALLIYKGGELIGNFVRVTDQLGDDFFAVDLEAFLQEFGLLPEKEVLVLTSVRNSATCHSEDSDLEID

molecular target: T1, PDCL C35 (UniProt Q13371); experiment: log2 mean competition ratio of IA-DTB cysteine labelling (DMSO/compound) (log2 ratio); higher = stronger cysteine engagement by compound; conditions: 50 µM; treatment time: 4 h; cell line lysate: HEK293T
T1 sequence (whole entry): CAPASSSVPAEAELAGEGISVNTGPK
Experimental: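 IA-DTB competitive cysteine chemoproteomics in HEK293T RIPA lysate. Lysates were treated with compound 29 or 30 at 50 or 200 µM for 4 h, then IA-DTB (500 µM, 1 h), trypsin-digested, NeutrAvidin-enriched and analysed by diaPASEF. Competition ratio = intensity DMSO / intensity compound (n=4 treated, n=64 DMSO); binding: mean log2 CR ≥ 1 and p ≤ 0.05 plus QC filters. Target is the cysteine site.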

Row | SMILES | log2 mean competition ratio
1 | O=C(CCl)N[C@H]1CCCc2ccccc21 | -0.412
2 | O=C(CCl)N[C@@H]1CCCc2ccccc21 | -0.071

same assay, conditions: 200 µM; treatment time: 4 h; cell line lysate: HEK293T

Row | SMILES | log2 mean competition ratio
3 | O=C(CCl)N[C@H]1CCCc2ccccc21 | -0.127
4 | O=C(CCl)N[C@@H]1CCCc2ccccc21 | -0.122
